PubChem BioAssay AID1259425, University of Nebraska Medical Center, 2018
In all, the deposit lists about 14,000 reagents; below is a random part of them. Not all columns of the deposit are shown. Not stated in the record: the time to read-out.

Screen: 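Seek colon cancer weak points whose silencing resembles KSR1 loss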 (primary screen)
Cell system: HCT116 human colon cancer cells
Reagents: siRNA pool against human genes, 50 nM siRNA
Detection: 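mRNA of six signature genes measured together by branched-DNA assay after 50 nM siRNA pool, blank removed, divided by geometric mean of two housekeeping genes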
Scale: BNIP3L mRNA: higher = more BNIP3L transcript after knockdown; NDRG1 mRNA: higher = more NDRG1 transcript after knockdown; BNIP3 mRNA: higher = more BNIP3 transcript after knockdown

| BNIP3L mRNA, set 1 | NDRG1 mRNA, set 1 | BNIP3 mRNA, set 1 | Gene | PubChem SID |
| --- | --- | --- | --- | --- |
| 0.0779 | 0.141 | 0.272 | NAIP | SID363995508 |
| 0.0752 | 0.106 | 0.261 | GPR180 | SID364004926 |
| 0.0563 | 0.0958 | 0.122 | TRANK1 | SID364005196 |
| 0.109 | 0.0857 | 0.404 | PRKRA | SID363994765 |
| 0.162 | 0.135 | 0.323 | FUT3 | SID363991485 |
| 0.12 | 0.222 | 0.241 | CCSER2 | SID364001318 |
| 0.09 | 0.217 | 0.218 | CRLF3 | SID363999774 |
| 0.409 | 0.6 | 0.74 | CETN3 | SID363995351 |
| 0.114 | 0.127 | 0.347 | ZNF236 | SID363997987 |
| 0.0686 | 0.335 | 0.259 | AARSD1 | SID364003357 |
| 0.38 | 1.42 | 0.364 | EIF2S3 | SID363992679 |
| 0.356 | 1.7 | 0.695 | SOX10 | SID363997693 |
| 0.182 | 0.328 | 0.281 | PRAM1 | SID364003807 |
| 0.388 | 0.267 | 0.839 | IKBKB | SID364005062 |
| 0.0983 | 0.11 | 0.255 | ADGRF5 | SID363999372 |
| 0.0564 | 0.099 | 0.254 | CARD8 | SID363999225 |
| 0.179 | 0.476 | 0.42 | FCSK | SID364004643 |
| 0.129 | 0.297 | 0.398 | PELO | SID363999741 |
| 0.357 | 0.173 | 0.389 | RPL3 | SID363992251 |
| 0.0841 | 0.173 | 0.171 | CXCL5 | SID363994144 |
| 0.0606 | 0.227 | 0.321 | RUVBL1 | SID363994776 |
| 0.1 | 0.137 | 0.292 | GOLGA1 | SID363993284 |
| 0.133 | 0.319 | 0.278 | NXT1 | SID363998372 |
| 0.147 | 0.203 | 0.293 | SPCS2 | SID363999082 |
| 0.0498 | 0.185 | 0.156 | GDPD2 | SID364000462 |
| 0.0949 | 0.163 | 0.285 | GKN1 | SID364001441 |
| 0.191 | 0.177 | 0.268 | PTTG2 | SID363997397 |
| 0.131 | 0.0709 | 0.343 | PKP3 | SID363997883 |
| 0.21 | 0.23 | 0.319 | PRSS27 | SID364003718 |
| 0.142 | 0.341 | 0.359 | GPR45 | SID363997922 |
| 0.172 | 0.357 | 0.305 | F8A1 | SID363998095 |
| 0.135 | 0.148 | 0.335 | UFM1 | SID364000241 |
| 0.467 | 1.13 | 0.662 | HSF2 | SID363995483 |
| 0.0394 | 0.0854 | 0.252 | GHRH | SID364001997 |
| 0.0779 | 0.0756 | 0.263 | SERINC3 | SID363997577 |
| 0.0866 | 0.34 | 0.256 | KAT2B | SID363994943 |
| 0.149 | 0.236 | 0.352 | SETD1B | SID364005099 |
| 0.175 | 0.255 | 0.26 | NTPCR | SID364003910 |
| 0.0741 | 0.275 | 0.182 | ARGLU1 | SID364000706 |
| 0.0578 | 0.145 | 0.191 | GABRA3 | SID363992098 |
| 0.11 | 0.116 | 0.227 | ARNT2 | SID363999152 |
| 0.113 | 0.255 | 0.355 | SACK1E | SID364000460 |
| 0.134 | 0.228 | 0.174 | GYS2 | SID364002248 |
| 0.3 | 1.03 | 0.517 | WDR91 | SID363998612 |
| 0.172 | 0.0784 | 0.275 | LGALS13 | SID363998392 |
| 0.0568 | 0.161 | 0.207 | ATP11B | SID364005267 |
| 0.23 | 0.386 | 0.414 | CARM1 | SID364004993 |
| 0.158 | 0.373 | 0.276 | RBM4 | SID363994051 |
| 0.16 | 0.138 | 0.462 | SLCO2B1 | SID363997947 |
| 0.334 | 0.162 | 0.618 | FLT1 | SID363993229 |

8 entries from above, limited to “BNIP3L mRNA, set 1”:
ARNT2 [SID363999152]	0.11
SACK1E [SID364000460]	0.113
GYS2 [SID364002248]	0.134
WDR91 [SID363998612]	0.3
LGALS13 [SID363998392]	0.172
ATP11B [SID364005267]	0.0568
CARM1 [SID364004993]	0.23
RBM4 [SID363994051]	0.158
